This is one part of the list.
Experiments:
Assay in all cases: log2 fold change, soluble protein after heating vs DMSO (PISA); higher = thermal stabilisation; K562 cells, 10 uM, 30 min; active = over 0.2 and 3.5 SD of the protein, either way, in both replicates (recomputed)
[1] = compound: C1=CC=C(C=C1)[C@H](COC2=CC3=C(C=C2)NC(=O)N3)NC(=O)C4=CC=CN(C4=O)CC5=CC(=C(C=C5)F)F
Outline: (§1)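 Values are thermal stability changes relative to control samples and are taken from duplicates. They are stated as log2 fold changes. Before quantification by TMTpro 16plex LC-MS/MS with equalised channel sums, K562 cells at 2×10^6 cells/mL were treated with 10 μM compound for 30 min, heated in aliquots for 3 min across 48°C-58°C, pooled, extracted in PBS with 0.5% NP-40 at 4°C, and centrifuged at 21,000xg for 90 min to give the soluble supernatant.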

By UniProt entry, the sequences of proteins in these tests, tags left out. Where a name states a change or a piece, a line headed by the entry shows the natural chain unless it says otherwise.
UniProt O75569: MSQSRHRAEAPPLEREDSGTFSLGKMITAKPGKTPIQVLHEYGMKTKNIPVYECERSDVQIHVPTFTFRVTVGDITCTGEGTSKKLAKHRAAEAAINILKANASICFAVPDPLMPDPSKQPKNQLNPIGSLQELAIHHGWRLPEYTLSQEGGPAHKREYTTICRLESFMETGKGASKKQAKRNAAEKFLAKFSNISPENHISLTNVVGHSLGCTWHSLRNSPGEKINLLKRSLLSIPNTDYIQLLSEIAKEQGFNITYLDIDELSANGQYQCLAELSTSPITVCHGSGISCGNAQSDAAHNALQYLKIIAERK
UniProt P31321, whole entry, looked up: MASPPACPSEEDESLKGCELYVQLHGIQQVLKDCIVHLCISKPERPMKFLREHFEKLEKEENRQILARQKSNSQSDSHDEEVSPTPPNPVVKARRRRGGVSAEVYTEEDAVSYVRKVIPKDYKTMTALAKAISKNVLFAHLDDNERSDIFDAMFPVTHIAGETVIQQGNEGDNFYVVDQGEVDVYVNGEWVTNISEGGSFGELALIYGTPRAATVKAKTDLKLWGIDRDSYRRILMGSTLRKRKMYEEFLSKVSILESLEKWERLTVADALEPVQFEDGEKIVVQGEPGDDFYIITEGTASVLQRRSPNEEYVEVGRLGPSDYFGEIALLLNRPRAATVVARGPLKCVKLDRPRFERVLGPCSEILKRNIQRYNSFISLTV
UniProt Q9UGJ0: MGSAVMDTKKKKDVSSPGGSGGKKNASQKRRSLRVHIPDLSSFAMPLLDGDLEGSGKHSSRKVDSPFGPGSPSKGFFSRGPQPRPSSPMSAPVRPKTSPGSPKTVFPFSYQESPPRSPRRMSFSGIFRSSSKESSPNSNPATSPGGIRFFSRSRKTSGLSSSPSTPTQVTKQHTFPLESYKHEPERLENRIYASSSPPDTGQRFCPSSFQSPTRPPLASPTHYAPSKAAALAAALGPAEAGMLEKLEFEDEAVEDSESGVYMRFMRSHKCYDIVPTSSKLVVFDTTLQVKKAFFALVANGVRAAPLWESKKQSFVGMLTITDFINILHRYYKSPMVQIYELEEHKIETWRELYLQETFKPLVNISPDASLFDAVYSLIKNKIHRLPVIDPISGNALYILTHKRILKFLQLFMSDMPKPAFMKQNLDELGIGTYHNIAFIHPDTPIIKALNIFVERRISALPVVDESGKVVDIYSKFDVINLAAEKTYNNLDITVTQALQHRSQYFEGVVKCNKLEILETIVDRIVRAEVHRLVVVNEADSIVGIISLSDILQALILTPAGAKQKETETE
UniProt Q96SB3: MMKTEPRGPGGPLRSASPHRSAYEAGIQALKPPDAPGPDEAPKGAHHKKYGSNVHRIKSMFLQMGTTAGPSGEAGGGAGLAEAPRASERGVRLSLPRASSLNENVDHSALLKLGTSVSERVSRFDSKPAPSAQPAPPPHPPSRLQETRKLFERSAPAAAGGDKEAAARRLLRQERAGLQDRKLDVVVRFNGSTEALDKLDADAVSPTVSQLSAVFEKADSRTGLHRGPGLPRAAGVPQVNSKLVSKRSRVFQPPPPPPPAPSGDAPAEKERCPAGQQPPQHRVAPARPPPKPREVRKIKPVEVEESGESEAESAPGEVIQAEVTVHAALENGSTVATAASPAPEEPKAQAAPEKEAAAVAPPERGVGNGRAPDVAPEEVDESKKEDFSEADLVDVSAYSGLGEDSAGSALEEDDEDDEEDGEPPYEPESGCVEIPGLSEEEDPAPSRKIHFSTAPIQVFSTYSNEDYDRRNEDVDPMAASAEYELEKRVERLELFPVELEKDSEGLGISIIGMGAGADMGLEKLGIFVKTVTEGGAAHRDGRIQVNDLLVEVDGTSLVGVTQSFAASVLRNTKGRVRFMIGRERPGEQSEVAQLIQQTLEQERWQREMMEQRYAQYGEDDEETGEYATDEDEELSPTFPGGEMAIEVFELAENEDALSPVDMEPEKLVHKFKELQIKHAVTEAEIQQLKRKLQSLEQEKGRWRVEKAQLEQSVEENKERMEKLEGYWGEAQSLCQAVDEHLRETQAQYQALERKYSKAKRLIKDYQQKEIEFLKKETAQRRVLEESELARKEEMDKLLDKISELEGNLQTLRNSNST
UniProt P07225: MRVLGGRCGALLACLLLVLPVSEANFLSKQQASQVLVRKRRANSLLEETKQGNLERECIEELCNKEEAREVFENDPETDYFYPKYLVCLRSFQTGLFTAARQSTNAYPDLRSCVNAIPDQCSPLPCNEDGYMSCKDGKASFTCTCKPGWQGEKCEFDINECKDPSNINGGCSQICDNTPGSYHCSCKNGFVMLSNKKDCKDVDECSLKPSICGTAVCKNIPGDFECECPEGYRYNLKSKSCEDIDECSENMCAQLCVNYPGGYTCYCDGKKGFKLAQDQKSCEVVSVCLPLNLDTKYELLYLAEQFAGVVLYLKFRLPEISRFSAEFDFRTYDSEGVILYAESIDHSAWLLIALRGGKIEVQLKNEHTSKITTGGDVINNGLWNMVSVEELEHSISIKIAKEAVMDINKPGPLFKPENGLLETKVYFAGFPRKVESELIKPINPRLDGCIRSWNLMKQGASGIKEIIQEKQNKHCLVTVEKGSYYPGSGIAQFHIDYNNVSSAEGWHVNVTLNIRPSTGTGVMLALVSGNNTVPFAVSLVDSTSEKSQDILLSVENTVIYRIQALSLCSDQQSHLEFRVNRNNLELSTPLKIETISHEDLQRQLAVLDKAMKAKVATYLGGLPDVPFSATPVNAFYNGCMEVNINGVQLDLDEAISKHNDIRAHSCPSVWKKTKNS
UniProt Q9UPN7: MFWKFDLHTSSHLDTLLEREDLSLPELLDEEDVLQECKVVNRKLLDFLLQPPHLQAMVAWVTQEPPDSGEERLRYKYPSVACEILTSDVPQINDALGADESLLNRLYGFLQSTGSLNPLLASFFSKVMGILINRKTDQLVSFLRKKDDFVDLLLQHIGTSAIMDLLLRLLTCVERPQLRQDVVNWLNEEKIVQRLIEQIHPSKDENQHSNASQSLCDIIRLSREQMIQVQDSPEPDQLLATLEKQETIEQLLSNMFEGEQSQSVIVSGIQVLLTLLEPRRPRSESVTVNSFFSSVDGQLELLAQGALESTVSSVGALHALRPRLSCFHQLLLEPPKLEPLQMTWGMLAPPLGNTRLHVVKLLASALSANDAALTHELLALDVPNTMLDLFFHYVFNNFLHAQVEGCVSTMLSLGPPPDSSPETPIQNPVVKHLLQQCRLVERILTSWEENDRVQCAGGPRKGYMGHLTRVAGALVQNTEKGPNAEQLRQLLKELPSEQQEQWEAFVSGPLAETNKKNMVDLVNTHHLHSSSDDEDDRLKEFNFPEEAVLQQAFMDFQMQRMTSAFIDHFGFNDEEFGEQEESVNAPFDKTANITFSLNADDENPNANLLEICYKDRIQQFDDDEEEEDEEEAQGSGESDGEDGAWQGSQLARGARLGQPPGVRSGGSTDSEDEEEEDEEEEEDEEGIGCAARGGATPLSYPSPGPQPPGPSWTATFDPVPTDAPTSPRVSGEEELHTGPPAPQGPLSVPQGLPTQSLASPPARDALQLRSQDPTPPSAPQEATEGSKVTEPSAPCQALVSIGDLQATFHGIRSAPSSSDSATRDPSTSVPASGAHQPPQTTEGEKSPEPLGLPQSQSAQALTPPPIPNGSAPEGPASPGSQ
UniProt P14314: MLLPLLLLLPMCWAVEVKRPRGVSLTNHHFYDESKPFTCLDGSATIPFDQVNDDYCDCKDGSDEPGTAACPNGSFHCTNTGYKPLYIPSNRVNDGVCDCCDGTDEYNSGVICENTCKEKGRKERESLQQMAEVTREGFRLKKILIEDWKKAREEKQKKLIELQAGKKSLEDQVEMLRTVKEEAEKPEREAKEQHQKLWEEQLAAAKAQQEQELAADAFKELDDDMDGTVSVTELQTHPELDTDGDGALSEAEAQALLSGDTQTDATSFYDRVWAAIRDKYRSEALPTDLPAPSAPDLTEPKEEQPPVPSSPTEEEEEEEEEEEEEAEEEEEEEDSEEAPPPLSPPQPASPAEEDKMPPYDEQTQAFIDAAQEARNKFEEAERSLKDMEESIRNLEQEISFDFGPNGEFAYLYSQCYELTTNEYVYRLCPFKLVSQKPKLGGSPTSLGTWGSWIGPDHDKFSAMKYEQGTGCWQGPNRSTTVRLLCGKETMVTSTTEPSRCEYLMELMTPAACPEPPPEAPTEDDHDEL
UniProt Q14738, whole entry, looked up: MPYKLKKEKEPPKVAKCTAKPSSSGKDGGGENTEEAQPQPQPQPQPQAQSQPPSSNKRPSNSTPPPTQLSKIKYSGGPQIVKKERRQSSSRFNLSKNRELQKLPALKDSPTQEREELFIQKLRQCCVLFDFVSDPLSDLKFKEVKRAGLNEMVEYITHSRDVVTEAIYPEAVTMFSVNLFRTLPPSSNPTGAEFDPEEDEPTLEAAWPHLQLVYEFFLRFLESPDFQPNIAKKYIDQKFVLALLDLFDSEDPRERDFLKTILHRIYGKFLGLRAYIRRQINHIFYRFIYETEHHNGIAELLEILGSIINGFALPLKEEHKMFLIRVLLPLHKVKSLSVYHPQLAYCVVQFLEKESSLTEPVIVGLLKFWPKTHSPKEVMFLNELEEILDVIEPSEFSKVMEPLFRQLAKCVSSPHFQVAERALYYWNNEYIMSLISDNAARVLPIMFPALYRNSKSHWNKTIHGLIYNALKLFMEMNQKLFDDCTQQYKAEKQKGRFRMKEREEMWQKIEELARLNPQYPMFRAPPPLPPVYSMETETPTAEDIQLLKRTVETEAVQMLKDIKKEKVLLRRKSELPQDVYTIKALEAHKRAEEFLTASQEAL
UniProt P51817: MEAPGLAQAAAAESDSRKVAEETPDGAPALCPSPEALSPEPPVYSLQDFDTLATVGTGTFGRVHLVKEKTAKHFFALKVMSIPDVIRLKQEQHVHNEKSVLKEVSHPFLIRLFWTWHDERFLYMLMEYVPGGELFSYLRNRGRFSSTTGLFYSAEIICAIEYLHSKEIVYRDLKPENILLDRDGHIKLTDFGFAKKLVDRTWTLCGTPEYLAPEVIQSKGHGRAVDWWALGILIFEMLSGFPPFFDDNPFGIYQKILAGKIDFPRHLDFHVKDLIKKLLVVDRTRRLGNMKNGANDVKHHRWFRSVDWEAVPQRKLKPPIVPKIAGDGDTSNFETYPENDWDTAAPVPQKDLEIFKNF
UniProt Q86WR7: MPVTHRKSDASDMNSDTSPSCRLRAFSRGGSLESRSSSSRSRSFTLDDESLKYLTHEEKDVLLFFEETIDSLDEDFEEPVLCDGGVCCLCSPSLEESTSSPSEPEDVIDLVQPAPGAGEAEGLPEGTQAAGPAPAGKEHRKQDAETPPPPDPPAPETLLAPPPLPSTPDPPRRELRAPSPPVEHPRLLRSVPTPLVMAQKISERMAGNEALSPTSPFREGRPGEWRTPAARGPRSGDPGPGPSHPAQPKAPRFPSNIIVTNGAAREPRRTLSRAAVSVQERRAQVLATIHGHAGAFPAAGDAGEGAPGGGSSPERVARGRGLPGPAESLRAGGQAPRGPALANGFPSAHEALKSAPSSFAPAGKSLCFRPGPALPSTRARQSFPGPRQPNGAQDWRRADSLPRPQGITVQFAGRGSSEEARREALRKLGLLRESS
UniProt O75688: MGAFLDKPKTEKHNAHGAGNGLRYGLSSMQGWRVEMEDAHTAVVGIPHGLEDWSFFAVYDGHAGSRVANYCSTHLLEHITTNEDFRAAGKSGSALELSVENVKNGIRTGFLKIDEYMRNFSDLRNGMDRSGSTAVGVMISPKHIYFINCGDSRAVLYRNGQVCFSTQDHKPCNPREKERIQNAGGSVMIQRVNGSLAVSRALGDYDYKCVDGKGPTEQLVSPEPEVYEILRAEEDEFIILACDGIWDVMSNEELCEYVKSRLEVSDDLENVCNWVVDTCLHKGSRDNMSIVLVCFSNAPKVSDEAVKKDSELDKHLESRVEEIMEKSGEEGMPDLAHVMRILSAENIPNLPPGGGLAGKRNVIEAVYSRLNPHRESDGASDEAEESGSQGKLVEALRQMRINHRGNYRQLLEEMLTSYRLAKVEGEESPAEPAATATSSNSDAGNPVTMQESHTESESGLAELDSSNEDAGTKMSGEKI
UniProt Q9UMS4: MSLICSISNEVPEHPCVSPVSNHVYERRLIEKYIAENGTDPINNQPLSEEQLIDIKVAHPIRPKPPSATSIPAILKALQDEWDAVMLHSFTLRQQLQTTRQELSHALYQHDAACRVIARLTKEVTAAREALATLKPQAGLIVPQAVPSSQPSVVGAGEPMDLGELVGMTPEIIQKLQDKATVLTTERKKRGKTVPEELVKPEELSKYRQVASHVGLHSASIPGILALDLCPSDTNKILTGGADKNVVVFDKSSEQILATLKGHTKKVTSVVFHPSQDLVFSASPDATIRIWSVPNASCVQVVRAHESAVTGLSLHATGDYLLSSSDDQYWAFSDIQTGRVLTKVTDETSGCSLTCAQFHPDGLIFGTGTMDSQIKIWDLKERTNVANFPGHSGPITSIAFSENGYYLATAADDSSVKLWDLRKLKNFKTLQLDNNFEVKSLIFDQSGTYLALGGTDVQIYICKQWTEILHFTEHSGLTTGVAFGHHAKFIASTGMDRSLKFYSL

[2] = compound: CC1=C(SC2=C1C(=N[C@H](C3=NN=C(N32)C)CC(=O)N)C4=CC=C(C=C4)Cl)C
Outline: as §1

[3] = compound: CC1=C2C(=CC=C1)N=C(N(C2=O)C3=CC=CC=C3C)CN4C=NC5=C(N=CN=C54)N
Outline: as §1

[4] = compound: Cc1sc2c(c1C)C(c1ccc(Cl)cc1)=N[C@@H](CC(=O)OC(C)(C)C)c1nnc(C)n1-2
Outline: as §1

[5] = compound: c1ccc([C@@H]2C[C@H]2NC2CCNCC2)cc1
Outline: as §1

Target	log2 fold change [1]	log2 fold change [2]	log2 fold change [3]	log2 fold change [4]	log2 fold change [5]
PRKRA (UniProt O75569)	inactive: 0.067	inactive: -0.246	inactive: -0.25	inactive: 0.226	inactive: 0.047
PRRC2B (UniProt Q5JSZ5)	inactive: -0.005	inactive: 0.007	inactive: -0.012	inactive: -0.014	inactive: 0.069
PRKAR1B (UniProt P31321)	inactive: 0.21	inactive: -0.026	inactive: 0.059	inactive: 0.019	inactive: -0.061
PRKAG2 (UniProt Q9UGJ0)	inactive: -0.025	inactive: 0.073	inactive: 0.022	inactive: 0.041	inactive: -0.087
PPP1R9B (UniProt Q96SB3)	inactive: 0.244	inactive: -0.213	inactive: -0.051	inactive: 0.039	inactive: 0.044
PROS1 (UniProt P07225)	inactive: 0.003	inactive: -0.039	inactive: -0.008	inactive: 0.043	inactive: 0.094
PPP6R1 (UniProt Q9UPN7)	inactive: -0.011	inactive: 0.002	inactive: 0.108	inactive: 0.005	inactive: 0.001
PRKCSH isoform 2 (UniProt P14314)	inactive: -0.01	inactive: 0.024	inactive: -0.138	inactive: -0.012	inactive: 0.044
PPP2R5D (UniProt Q14738)	inactive: -0.016	inactive: 0.103	inactive: 0.087	inactive: -0.01	inactive: -0.029
PPP1CC (UniProt F8W1A0)	inactive: 0.046				
PRKX (UniProt P51817)	active: -0.754				
PROSER2 (UniProt Q86WR7)	inactive: 0.012	inactive: 0.006	inactive: -0.015	inactive: -0.051	inactive: 0.029
PPM1B isoform 2 (UniProt O75688)	inactive: -0.02				
PRPF19 (UniProt Q9UMS4)	inactive: 0.023	inactive: 0.042	inactive: -0.008	inactive: 0.002	inactive: 0.008

Reformatted: entries from further up.

| Target | log2 fold change [1] | log2 fold change [2] | log2 fold change [3] | log2 fold change [4] | log2 fold change [5] |
| --- | --- | --- | --- | --- | --- |
| PRKAR1B (UniProt P31321) | inactive: 0.21 | inactive: -0.026 | inactive: 0.059 | inactive: 0.019 | inactive: -0.061 |
| PRKAG2 (UniProt Q9UGJ0) | inactive: -0.025 | inactive: 0.073 | inactive: 0.022 | inactive: 0.041 | inactive: -0.087 |
| PPP1R9B (UniProt Q96SB3) | inactive: 0.244 | inactive: -0.213 | inactive: -0.051 | inactive: 0.039 | inactive: 0.044 |
